Patent publication US20180344808A1, “HAPTOGLOBIN DERIVATIVE FOR TREATMENT OF SEPSIS AND ACETAMINOPHEN-INDUCED LIVER DAMAGE” (THE FEINSTEIN INSTITUTE FOR MEDICAL RESEARCH, priority 2017, published 2018)
These are yes or no findings as the source states them, for the method shown. For some of these results: Binding seen in cells or lysates may run through a third protein. Some binding calls cover weakened binding; strength is not graded here.

By UniProt entry, the sequences of proteins in these tests, tags left out. Where a name states a change or a piece, a line headed by the entry shows the natural chain unless it says otherwise. Residues count along the entry.
UniProt P09429: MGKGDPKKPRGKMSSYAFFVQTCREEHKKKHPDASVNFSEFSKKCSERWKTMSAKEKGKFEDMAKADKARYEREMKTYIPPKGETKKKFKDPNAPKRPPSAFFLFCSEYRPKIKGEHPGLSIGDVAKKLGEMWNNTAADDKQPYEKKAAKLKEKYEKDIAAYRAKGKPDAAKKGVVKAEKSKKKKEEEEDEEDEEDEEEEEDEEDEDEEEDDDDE
UniProt P63159, residues 2-215: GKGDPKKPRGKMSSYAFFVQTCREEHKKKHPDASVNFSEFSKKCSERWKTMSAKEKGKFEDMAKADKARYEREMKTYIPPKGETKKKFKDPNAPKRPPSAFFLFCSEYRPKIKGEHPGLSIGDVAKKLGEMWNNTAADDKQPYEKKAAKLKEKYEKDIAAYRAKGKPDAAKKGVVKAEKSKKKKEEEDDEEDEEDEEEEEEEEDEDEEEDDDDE
UniProt P01946: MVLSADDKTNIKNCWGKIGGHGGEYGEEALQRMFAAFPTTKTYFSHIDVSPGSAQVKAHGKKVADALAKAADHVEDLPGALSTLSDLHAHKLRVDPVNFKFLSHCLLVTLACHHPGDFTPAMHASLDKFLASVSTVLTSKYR
UniProt P02091: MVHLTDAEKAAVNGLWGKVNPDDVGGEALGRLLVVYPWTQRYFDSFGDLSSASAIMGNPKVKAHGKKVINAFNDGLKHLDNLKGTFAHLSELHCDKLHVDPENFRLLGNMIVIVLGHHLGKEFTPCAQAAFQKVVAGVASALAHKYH
UniProt P00738: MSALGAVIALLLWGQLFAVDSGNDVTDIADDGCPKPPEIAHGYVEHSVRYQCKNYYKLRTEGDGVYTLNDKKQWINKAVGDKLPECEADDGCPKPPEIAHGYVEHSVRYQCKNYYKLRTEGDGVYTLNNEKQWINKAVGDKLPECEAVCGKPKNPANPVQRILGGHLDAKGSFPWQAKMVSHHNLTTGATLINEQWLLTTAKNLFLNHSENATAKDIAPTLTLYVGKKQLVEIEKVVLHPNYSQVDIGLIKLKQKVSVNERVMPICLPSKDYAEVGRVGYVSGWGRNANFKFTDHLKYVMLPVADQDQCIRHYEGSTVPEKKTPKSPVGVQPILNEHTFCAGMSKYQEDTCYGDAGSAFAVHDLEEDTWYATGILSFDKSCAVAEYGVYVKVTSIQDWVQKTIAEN

What was measured:
[1] = molecular target: HMGB1 (Homo sapiens (Human)) (UniProt P09429); assay: structural functional analysis / SPR
[2] = molecular target: HMGB1 from the blood of septic rats (rat) (UniProt P63159); assay: extracorporeal haptoglobin affinity chromatography
[3] = molecular target: free hemoglobin from septic rats (rat) (UniProt P01946+P02091); assay: pull-down on haptoglobin-sepharose beads, extracorporeal device
[4] = molecular target: HMGB1 from the blood of septic rats (rat) (UniProt P63159); assay: as above

| Substance | binding [1] | binding [2] | binding [3] | binding [4] |
| --- | --- | --- | --- | --- |
| Haptoglobin beta subunit (human) (from UniProt P00738 162-406) | binds | – | – | – |
| full-length haptoglobin (SEQ ID NO:2) (from UniProt P00738 19-406) | – | binds | binds | binds |
